These are yes or no findings as the source states them, for the method shown. In cells and extracts the contact can be indirect. Some results given as binding are weak or reduced against the parent protein; the word gives no strength. Tags and fused reporters may be left off the sequences shown.

Test [1] addresses YC–CaM2 (CaM2 fused to the C-terminal half of YFP) (UniProt P0DH97). Kind of test: split reporter; BiFC: YN and YC fusions transiently co-expressed in N. benthamiana leaves by Agrobacterium infiltration; YFP fluorescence by confocal imaging with identical laser settings.
Test [2] concerns the target T1, YC–TRM1 (TON1 RECRUITMENT MOTIF1 fused to the C-terminal half of YFP) (UniProt Q9S823).
T1 sequence: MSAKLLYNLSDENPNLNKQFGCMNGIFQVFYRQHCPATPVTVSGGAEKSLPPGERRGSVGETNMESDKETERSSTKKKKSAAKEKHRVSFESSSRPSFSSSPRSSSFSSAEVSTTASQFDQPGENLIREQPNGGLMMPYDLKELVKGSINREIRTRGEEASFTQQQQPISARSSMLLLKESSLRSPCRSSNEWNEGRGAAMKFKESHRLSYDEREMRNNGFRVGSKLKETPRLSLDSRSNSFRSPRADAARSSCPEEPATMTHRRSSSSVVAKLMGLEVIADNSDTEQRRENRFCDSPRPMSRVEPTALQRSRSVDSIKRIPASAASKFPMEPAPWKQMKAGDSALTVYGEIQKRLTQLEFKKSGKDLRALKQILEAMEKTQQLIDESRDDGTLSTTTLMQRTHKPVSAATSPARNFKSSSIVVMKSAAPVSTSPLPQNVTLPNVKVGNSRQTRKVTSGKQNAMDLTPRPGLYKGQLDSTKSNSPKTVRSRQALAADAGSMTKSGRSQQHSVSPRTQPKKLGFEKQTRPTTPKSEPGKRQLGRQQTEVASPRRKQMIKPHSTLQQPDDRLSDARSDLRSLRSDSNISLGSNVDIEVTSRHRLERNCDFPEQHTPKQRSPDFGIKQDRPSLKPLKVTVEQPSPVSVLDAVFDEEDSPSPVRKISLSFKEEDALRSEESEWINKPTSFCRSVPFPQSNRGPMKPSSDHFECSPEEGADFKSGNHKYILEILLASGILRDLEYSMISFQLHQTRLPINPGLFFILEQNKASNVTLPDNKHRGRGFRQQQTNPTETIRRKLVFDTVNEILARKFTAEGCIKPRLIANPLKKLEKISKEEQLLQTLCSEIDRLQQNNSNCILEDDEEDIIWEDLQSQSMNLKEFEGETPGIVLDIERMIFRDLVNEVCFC
The test is described as above.

B1: YN–IQD5 (IQD5 fused to the N-terminal half of YFP) (protein, UniProt F4J061 1-422)
chain: MGASGRWIKALVGFTKSDKSRSSKKDENVKVATKSRFGRKNSVDFDFEKFQDGFEDSNTRSMVDTGVSTSTSLQSYGGVAYDEQSRENRAATRIQTAYRGFLARRALRALKGLVRLQALVRGHAVRKQAAVTLRCMQALVRVQARVRARRVRLALELESETSQQTLQQQLADEARVREIEEGWCDSIGSVEQIQAKLLKRQEAAAKRERAMAYALTHQWQAGTRLLSAHSGFQPDKNNWGWNWLERWMAVRPWENRFLDSNLRDDAKLGENGMEQSENVPKTQIKSVSKMPNTSNLVSGVSSQMTGPCQSDGDSSSPGISSSIPVVSKAKSKPAKDDLAVEVNSRPGAGPRSHSNPKERSREPNRSSKERLSLPNSGKSLGSQSTKANRAGKLTPASQKVVEEKSAQNQRRRNSDPIKQRLA
For the molecule B1, the binding result in test [1] is reported as “binds”; in test [2], “no binding”.

These data come from publication PMC6322583.
